These are yes or no findings as the source states them, for the method shown. In cells and extracts the contact can be indirect. Some results given as binding are weak or reduced against the parent protein; the word gives no strength.
Columns and labels:
TSC1 (human) = target: T1, TSC1 (human) (UniProt Q92574); experiment: co-IP
T1 sequence: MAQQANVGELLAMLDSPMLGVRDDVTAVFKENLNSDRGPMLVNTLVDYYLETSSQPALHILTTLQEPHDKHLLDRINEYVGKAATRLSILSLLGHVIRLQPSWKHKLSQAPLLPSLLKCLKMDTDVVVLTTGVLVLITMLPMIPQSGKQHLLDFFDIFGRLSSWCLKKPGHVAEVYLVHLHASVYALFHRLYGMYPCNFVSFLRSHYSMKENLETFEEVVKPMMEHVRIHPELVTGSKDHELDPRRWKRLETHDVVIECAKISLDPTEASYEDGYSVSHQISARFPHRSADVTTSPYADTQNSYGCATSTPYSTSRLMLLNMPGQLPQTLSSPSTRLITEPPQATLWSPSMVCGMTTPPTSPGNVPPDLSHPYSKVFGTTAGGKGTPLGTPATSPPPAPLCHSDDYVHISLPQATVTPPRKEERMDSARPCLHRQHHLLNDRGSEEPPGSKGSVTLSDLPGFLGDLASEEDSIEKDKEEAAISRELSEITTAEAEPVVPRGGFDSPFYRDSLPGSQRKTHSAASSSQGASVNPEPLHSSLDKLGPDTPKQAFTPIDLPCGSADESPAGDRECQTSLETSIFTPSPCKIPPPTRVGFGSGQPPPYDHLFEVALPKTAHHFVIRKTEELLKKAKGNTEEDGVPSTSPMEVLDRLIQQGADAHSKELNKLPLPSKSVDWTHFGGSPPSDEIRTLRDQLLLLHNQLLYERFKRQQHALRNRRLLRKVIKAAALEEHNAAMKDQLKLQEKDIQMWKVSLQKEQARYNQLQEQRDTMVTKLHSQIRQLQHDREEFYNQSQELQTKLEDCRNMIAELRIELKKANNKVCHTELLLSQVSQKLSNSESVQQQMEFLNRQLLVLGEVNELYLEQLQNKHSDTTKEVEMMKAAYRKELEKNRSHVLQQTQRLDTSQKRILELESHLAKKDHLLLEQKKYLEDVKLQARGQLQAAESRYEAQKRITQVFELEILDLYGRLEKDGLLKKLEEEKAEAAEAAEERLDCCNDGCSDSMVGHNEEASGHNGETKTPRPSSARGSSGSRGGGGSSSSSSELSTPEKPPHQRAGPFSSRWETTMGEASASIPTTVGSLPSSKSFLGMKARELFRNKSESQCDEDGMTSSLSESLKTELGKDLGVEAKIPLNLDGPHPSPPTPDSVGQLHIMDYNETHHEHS

Protein sequences, listed by entry. Tags and fused reporters are not part of them.
UniProt P49816: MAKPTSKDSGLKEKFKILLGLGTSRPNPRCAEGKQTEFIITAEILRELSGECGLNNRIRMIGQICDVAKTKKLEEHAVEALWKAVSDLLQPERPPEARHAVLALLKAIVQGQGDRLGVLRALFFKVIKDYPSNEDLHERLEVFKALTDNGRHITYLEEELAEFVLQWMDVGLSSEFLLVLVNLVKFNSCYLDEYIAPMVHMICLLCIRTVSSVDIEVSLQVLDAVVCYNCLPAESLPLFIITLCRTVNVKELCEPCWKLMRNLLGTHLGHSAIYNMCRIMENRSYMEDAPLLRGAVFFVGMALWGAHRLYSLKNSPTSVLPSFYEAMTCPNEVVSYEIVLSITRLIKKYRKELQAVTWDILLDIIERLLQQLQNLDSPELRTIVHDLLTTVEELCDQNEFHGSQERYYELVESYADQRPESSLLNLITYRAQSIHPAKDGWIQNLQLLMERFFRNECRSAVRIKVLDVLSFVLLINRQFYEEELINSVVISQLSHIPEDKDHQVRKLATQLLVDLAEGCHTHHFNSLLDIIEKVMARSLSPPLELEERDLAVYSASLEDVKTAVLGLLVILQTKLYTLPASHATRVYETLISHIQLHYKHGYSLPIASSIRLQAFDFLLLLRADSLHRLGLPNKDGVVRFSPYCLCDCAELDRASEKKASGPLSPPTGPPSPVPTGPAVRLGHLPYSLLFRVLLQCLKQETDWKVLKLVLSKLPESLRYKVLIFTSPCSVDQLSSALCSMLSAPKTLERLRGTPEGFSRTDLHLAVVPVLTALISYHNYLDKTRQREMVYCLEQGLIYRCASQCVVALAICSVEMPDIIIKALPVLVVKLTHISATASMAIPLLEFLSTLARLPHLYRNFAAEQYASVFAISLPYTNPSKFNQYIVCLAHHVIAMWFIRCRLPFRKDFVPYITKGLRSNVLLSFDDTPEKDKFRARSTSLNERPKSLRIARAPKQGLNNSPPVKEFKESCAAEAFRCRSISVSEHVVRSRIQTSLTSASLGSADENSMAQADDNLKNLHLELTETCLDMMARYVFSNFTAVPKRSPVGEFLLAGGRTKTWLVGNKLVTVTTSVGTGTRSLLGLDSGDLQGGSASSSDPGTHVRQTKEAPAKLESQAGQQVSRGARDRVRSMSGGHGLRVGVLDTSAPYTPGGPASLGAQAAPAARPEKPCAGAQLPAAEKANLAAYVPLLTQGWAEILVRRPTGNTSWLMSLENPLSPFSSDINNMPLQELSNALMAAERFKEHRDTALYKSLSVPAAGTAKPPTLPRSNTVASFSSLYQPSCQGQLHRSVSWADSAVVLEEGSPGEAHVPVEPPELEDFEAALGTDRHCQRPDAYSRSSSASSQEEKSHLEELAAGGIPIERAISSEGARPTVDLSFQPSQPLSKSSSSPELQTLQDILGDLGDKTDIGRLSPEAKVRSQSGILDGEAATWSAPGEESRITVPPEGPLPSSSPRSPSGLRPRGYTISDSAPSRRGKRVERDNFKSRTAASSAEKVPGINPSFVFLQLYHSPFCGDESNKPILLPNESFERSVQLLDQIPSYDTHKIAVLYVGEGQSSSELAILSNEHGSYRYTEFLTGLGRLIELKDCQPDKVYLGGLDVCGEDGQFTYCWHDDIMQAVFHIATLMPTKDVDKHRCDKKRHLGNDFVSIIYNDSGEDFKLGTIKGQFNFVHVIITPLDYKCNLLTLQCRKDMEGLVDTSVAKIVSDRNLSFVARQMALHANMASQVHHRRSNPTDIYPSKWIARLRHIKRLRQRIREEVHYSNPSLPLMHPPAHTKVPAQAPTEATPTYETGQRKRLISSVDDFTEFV

[1] = target: TSC2 (rat brain) (rat (endogenous in brain)) (UniProt P49816); experiment: co-IP

B1: TBC1D7 (protein, UniProt Q9P0N9 1-293)
chain: MTEDSQRNFRSVYYEKVGFRGVEEKKSLEILLKDDRLDTEKLCTFSQRFPLPSMYRALVWKVLLGILPPHHESHAKVMMYRKEQYLDVLHALKVVRFVSDATPQAEVYLRMYQLESGKLPRSPSFPLEPDDEVFLAIAKAMEEMVEDSVDCYWITRRFVNQLNTKYRDSLPQLPKAFEQYLNLEDGRLLTHLRMCSAAPKLPYDLWFKRCFAGCLPESSLQRVWDKVVSGSCKILVFVAVEILLTFKIKVMALNSAEKITKFLENIPQDSSDAIVSKAIDLWHKHCGTPVHSS
For B1, the binding (TSC1 (human)) was “binds”.

B2: TSC1 (rat brain) (protein, UniProt Q9Z136 1-1163)
chain: MAQLANIGELLSMLDSSTLGVRDDVTTIFKESLNSERGPMLVNTLVDYYLETNSQPVLHILTTLQEPHDKHLLDKMNEYVGKAATRLSILSLLGHVVRLQPSWKHKLSQAPLLPSLLKCLKMDTDVVVLTTGVLVLITMLPMIPQSGKQHLLDFFDIFGRLSSWCLKKPGHVTEVYLVHLHASVYALFHRLYGMYPCNFVSFLRSHYSMKENVETFEEVVKPMMEHVRIHPELVTGSKDHELDPRRWKTLETHDVVIECAKISLDPTEASYEDGDAVSHQLSACFPHRSADVTTSSYVDTQNSYGGATSTPSSTSRLMLFSTPGQLPQSLSSLSTRPLPEPLQASLWSPSAVCGMTTPPTSPGNVPADLSHPYSKAFGTTTGGKGTPSGTPATSPPPAPPCPQDDCAHGPASQASATPPRKEERADSSRPYLPRQQDVPSDRGLEDLPGSKGSVTLRNLPDFLGDLASEEDSIEKDKEEAAISKELSEITTAEADPVAPRGGFDSPFYRDSLSGSQRKTHSAASGTQGFSVNPEPLHSSLDKHGPDTPKQAFTPIDPPSGSADASPAGDRDRQTSLETSILTPSPCKIPPQRGVSFGSGQLPPYDHLFEVALPKTACHFVSKKTEELLKKAKGNPEEDCVPSTSPMEVLDRLLEQGAGAHSKELSRLSLPSKSVDWTHFGGSPPSDEIRTLRDQLLLLHNQLLYERFKRQQHALRNRRLLRKVIRAAALEEHNAAMKDQLKLQEKDIQMWKVSLQKEQARYSQLQQQRDTMVTQLHSQIRQLQHDREEFYNQSQELQTKLEDCRSMIAELRVELKKANSKVCHTELLLSQVSQKLSNSESVQQQMEFLNRQLLVLGEVNELYLEQLQSKHPDTTKEVEMMKTAYRKELEKNRSHLLQQNQRLDASQRRVLELESLLAKKDHLLLEQKKYLEDVKSQASGQLLAAESRYEAQRKITRVLELEILDLYGRLEKDGRLQKLEEDRAEAAEAAEERLDCCTDGCSDSLLGHNEEAAGHNGETRTSRPGGTRASCGGRVTGGSSSSSSELSTPEKPPNQRFSSRWEPTMGEPSSSIPTTVGSLPSSKSFLGMKTRELFRNKSESQCDEDGMTMSSFSETLKTELGKDSAGMENKTPPSLDAPHPSSPSSDSMGQLHIMDYNETHHEHS
In the case of B2, the binding [1] is reported as “binds”.

— paper doi:10.1101/2021.01.18.426261
